PubChem BioAssay AID504774 – Drosophila RNAi Screening Center | 2011
The screen tested about 23,000 reagents; shown is an unselected part of those with a known target gene and a result. 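Values are quantile-normalised luminescence on an arbitrary scale; higher means more cells surviving MMS.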 A plus sign joins genes that one reagent is predicted to hit. Further read-outs or replicates are left out here. No sequences are given here.

Test: 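Genes required for cells to withstand methyl methanesulphonate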 (primary screen)
System: Drosophila Kc167 cells
Reagent: long dsRNA against Drosophila genes, about 0.25 µg dsRNA per well
Timing: about 6 days: 3 days knock-down, then 3 days with or without MMS
Treatment: methyl methanesulphonate 0.004% (w/v) for 3 days after knock-down
Measured: 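Viability in wells given MMS, read as ATP luminescence, normalised by quantiles plate by plate and averaged across replicates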
Reading the numbers: mean viability with MMS: higher = more surviving cells after MMS

CG15073 | mean viability with MMS: 3.59e6
NimB1 (Nimrod B1) | mean viability with MMS: 3.70e6
CG2150 | mean viability with MMS: 3.66e6
ND-24L (NADH dehydrogenase (ubiquinone) 24 kDa subunit-like) | mean viability with MMS: 3.37e6
CG13931 | mean viability with MMS: 3.49e6
CG7460 | mean viability with MMS: 3.55e6
CG8176 | mean viability with MMS: 3.65e6
Cyp9f3 (Cytochrome P450 9f3) | mean viability with MMS: 3.84e6
pncr004:X (retired record) | mean viability with MMS: 3.69e6
CG12546 + CG14452 | mean viability with MMS: 3.40e6
Jhbp7 (Juvenile hormone binding protein 7) | mean viability with MMS: 3.41e6
CG10589 | mean viability with MMS: 3.44e6
Gr59c (Gustatory receptor 59c) | mean viability with MMS: 3.59e6
CG12948 | mean viability with MMS: 3.68e6

As entered above:
CG13931, mean viability with MMS = 3.49e6
For “mean viability with MMS”, CG8176 has 3.65e6
